Measured values: publication PMC4150809
Results are given in words; binding and its absence hold for the method and conditions named. Binding seen in cells or lysates may run through a third protein. A yes stands for co-enrichment or nearness to the bait. Other partners may have been found.

Biological target: Flag-tagged PRMT5 (UniProt O14744)
Assay: affinity purification with mass spectrometry; anti-FLAG M2 affinity gel immunoprecipitates from K562 cells stably overexpressing PRMT5-FLAG, eluted with 3x FLAG peptide, SDS-PAGE, bands excised, electrospray-ion trap tandem mass spectrometry

binding: binds
Substance: LYAR (human homologue of mouse Ly-1 antibody reactive clone) (from UniProt Q9NX58 1-379)
